Consider 2 molecules from publication PMC3934975.

The target in assay [1] is T1, Myc-PTP3 (protein tyrosine phosphatase 3) (D. discoideum) (UniProt P54637).
T1 sequence: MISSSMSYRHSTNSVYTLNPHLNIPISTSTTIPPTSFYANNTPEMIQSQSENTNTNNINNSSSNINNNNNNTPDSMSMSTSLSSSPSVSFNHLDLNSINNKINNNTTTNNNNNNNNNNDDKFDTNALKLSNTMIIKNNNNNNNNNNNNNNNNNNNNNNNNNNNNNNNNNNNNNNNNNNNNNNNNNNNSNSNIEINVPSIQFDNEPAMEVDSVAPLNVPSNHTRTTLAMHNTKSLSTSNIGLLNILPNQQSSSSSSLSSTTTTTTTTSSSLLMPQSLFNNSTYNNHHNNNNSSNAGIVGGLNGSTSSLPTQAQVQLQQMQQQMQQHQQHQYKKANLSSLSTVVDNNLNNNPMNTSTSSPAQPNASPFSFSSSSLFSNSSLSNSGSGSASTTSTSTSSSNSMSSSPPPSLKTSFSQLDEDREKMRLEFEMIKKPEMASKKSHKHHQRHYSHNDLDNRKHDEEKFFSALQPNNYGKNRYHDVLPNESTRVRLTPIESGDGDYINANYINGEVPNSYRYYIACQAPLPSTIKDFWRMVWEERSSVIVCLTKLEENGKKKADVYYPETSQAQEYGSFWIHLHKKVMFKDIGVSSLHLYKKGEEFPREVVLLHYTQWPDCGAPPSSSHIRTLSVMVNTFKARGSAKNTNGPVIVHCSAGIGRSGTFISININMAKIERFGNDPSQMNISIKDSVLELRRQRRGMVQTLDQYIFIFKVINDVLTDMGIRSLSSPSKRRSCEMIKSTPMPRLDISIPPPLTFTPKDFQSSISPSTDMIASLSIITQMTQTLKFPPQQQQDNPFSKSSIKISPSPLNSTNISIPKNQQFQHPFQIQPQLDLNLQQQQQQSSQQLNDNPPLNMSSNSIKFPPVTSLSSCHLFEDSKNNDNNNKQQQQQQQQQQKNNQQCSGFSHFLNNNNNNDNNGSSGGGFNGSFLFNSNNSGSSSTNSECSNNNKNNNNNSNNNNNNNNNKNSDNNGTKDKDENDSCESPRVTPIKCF
Briefly: pull-down; reverse approach: Myc-PTP3 held on anti-Myc (9E10) Dynabeads Protein G; 5-10 ug GST-Phg2 or GST eluted from glutathione beads added in pull-down buffer (20 mM Hepes/NaOH pH 7.4, 10 mM MgCl2, 0.02% NP-40, 30 mM NaCl, 1 mM DTT, 0.2 mM ATP), 2 h at 4°C; Western blot; both purified.

In assay [2] the target is T2, GST-Phg2 (amino acids 207-1159 of Phg2) (D. discoideum) (UniProt Q54QQ1).
T2 sequence: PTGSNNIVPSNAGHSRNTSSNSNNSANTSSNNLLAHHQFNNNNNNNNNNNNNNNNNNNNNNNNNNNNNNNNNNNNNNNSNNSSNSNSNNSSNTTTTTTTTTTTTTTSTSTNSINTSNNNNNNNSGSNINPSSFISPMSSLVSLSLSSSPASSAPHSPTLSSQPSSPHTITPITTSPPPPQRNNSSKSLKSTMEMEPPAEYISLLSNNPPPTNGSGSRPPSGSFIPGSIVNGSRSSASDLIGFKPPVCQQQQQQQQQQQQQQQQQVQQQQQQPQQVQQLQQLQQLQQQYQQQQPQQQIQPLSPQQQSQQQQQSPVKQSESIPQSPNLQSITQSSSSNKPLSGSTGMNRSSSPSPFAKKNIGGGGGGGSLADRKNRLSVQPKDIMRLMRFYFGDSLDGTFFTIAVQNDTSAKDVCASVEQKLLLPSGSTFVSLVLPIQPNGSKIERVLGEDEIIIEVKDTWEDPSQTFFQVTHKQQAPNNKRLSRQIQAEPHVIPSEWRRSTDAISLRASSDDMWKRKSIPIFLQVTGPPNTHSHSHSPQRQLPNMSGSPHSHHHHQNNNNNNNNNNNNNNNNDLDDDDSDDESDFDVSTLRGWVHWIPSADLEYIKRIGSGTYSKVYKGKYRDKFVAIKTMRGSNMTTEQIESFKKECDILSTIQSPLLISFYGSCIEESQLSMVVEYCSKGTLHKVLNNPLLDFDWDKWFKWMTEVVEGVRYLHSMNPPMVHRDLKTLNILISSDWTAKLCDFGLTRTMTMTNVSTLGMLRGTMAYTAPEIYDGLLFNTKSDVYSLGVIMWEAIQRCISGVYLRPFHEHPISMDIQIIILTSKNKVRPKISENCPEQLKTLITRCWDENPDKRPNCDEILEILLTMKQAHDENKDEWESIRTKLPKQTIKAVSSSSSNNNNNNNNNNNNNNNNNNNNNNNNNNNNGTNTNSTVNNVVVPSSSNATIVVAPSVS
Nature of the assay: pull-down; GST-Phg2 or GST on glutathione agarose beads; Myc-PTP3 immunopurified from phg2- cells and eluted by a pH shift (50 mM glycine, pH 2.8); pull-down buffer 20 mM Hepes/NaOH pH 7.4, 10 mM MgCl2, 0.02% NP-40, 30 mM NaCl, 1 mM DTT, 0.2 mM ATP; Western blot; both purified.

No constants are given. Whether binding was seen depends on the method and setting. Some entries that bind do so weakly or less than the wild type. Where a sequence is shown, tags or fusion partners need not be part of it.

B1: GST-Phg2 (amino acids 207-1159 of Phg2) (domain or fragment, UniProt Q54QQ1 207-1159)
chain: PTGSNNIVPSNAGHSRNTSSNSNNSANTSSNNLLAHHQFNNNNNNNNNNNNNNNNNNNNNNNNNNNNNNNNNNNNNNNSNNSSNSNSNNSSNTTTTTTTTTTTTTTSTSTNSINTSNNNNNNNSGSNINPSSFISPMSSLVSLSLSSSPASSAPHSPTLSSQPSSPHTITPITTSPPPPQRNNSSKSLKSTMEMEPPAEYISLLSNNPPPTNGSGSRPPSGSFIPGSIVNGSRSSASDLIGFKPPVCQQQQQQQQQQQQQQQQQVQQQQQQPQQVQQLQQLQQLQQQYQQQQPQQQIQPLSPQQQSQQQQQSPVKQSESIPQSPNLQSITQSSSSNKPLSGSTGMNRSSSPSPFAKKNIGGGGGGGSLADRKNRLSVQPKDIMRLMRFYFGDSLDGTFFTIAVQNDTSAKDVCASVEQKLLLPSGSTFVSLVLPIQPNGSKIERVLGEDEIIIEVKDTWEDPSQTFFQVTHKQQAPNNKRLSRQIQAEPHVIPSEWRRSTDAISLRASSDDMWKRKSIPIFLQVTGPPNTHSHSHSPQRQLPNMSGSPHSHHHHQNNNNNNNNNNNNNNNNDLDDDDSDDESDFDVSTLRGWVHWIPSADLEYIKRIGSGTYSKVYKGKYRDKFVAIKTMRGSNMTTEQIESFKKECDILSTIQSPLLISFYGSCIEESQLSMVVEYCSKGTLHKVLNNPLLDFDWDKWFKWMTEVVEGVRYLHSMNPPMVHRDLKTLNILISSDWTAKLCDFGLTRTMTMTNVSTLGMLRGTMAYTAPEIYDGLLFNTKSDVYSLGVIMWEAIQRCISGVYLRPFHEHPISMDIQIIILTSKNKVRPKISENCPEQLKTLITRCWDENPDKRPNCDEILEILLTMKQAHDENKDEWESIRTKLPKQTIKAVSSSSSNNNNNNNNNNNNNNNNNNNNNNNNNNNNGTNTNSTVNNVVVPSSSNATIVVAPSVS
With B1, the binding entry in assay [1] was “binds”.

B2: Myc-PTP3 (protein tyrosine phosphatase 3) (enzyme, UniProt P54637 1-990)
chain: MISSSMSYRHSTNSVYTLNPHLNIPISTSTTIPPTSFYANNTPEMIQSQSENTNTNNINNSSSNINNNNNNTPDSMSMSTSLSSSPSVSFNHLDLNSINNKINNNTTTNNNNNNNNNNDDKFDTNALKLSNTMIIKNNNNNNNNNNNNNNNNNNNNNNNNNNNNNNNNNNNNNNNNNNNNNNNNNNNSNSNIEINVPSIQFDNEPAMEVDSVAPLNVPSNHTRTTLAMHNTKSLSTSNIGLLNILPNQQSSSSSSLSSTTTTTTTTSSSLLMPQSLFNNSTYNNHHNNNNSSNAGIVGGLNGSTSSLPTQAQVQLQQMQQQMQQHQQHQYKKANLSSLSTVVDNNLNNNPMNTSTSSPAQPNASPFSFSSSSLFSNSSLSNSGSGSASTTSTSTSSSNSMSSSPPPSLKTSFSQLDEDREKMRLEFEMIKKPEMASKKSHKHHQRHYSHNDLDNRKHDEEKFFSALQPNNYGKNRYHDVLPNESTRVRLTPIESGDGDYINANYINGEVPNSYRYYIACQAPLPSTIKDFWRMVWEERSSVIVCLTKLEENGKKKADVYYPETSQAQEYGSFWIHLHKKVMFKDIGVSSLHLYKKGEEFPREVVLLHYTQWPDCGAPPSSSHIRTLSVMVNTFKARGSAKNTNGPVIVHCSAGIGRSGTFISININMAKIERFGNDPSQMNISIKDSVLELRRQRRGMVQTLDQYIFIFKVINDVLTDMGIRSLSSPSKRRSCEMIKSTPMPRLDISIPPPLTFTPKDFQSSISPSTDMIASLSIITQMTQTLKFPPQQQQDNPFSKSSIKISPSPLNSTNISIPKNQQFQHPFQIQPQLDLNLQQQQQQSSQQLNDNPPLNMSSNSIKFPPVTSLSSCHLFEDSKNNDNNNKQQQQQQQQQQKNNQQCSGFSHFLNNNNNNDNNGSSGGGFNGSFLFNSNNSGSSSTNSECSNNNKNNNNNSNNNNNNNNNKNSDNNGTKDKDENDSCESPRVTPIKCF
As to B2, the binding entry in assay [2] is “binds”.
